Assay [1] has as its target T1, Flag-STX18 WT (syntaxin 18) (UniProt Q9P2W9).
T1 sequence: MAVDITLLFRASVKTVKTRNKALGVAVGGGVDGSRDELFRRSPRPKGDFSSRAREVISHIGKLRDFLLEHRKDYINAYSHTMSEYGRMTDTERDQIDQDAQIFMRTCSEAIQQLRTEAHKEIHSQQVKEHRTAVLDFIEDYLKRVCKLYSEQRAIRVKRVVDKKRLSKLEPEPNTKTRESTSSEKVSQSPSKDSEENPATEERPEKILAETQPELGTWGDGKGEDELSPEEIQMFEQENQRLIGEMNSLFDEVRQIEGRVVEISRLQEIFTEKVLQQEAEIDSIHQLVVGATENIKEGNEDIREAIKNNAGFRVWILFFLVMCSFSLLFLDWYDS
Kind of assay: co-IP; cells (HEK293T in the legend, HepG2 in the text) transfected with Flag-STX18 and GFP-FSP27 36 h, with or without 0.2 mM OA-BSA 12 h; Flag IP; western blot.

The target of assay [2] is T2, GST-Flag-STX18 (full-length) (UniProt Q9P2W9).
T2 sequence: T1 sequence
Kind of assay: pull-down; GST-Flag-tagged SNARE on GST agarose beads, 4 °C 1 h; 20 mM HEPES pH 7.4, 300 mM NaCl, 1 mM EDTA, 1% OG; purified FSP27 (3.3 mg/mL, 5 μL) added; western blot; both purified. On the technique in general: Immunoblotting shows a protein as a band on a membrane.

These are yes or no findings as the source states them, for the method shown. Binding calls can cover weak binding; strength is not graded here. Tags and fused reporters may be left off the sequences shown. For some assays here: Binding seen in cells or lysates may run through a third protein.

On to GFP-FSP27 (CIDEC/FSP27), for which the binding result in assay [1] is “binds”.
CIDEC/FSP27 (full-length, purified): the binding result in assay [2] is on record as “binds”.

The record behind these values is article PMC10663520, “Qa-SNARE syntaxin 18 mediates lipid droplet fusion with SNAP23 and SEC22B” (Cell Discovery, 2023).
